The source of these data is patent US20240229055A9, “MOGROSIDE COMPOSITIONS AND METHODS OF PRODUCING SAME” (Elo Life Systems, priority 2022, published 2024).

Each structure is given as a SMILES string. Entries after “also recorded” stand apart in the source; their conditions may differ.

The test system of the data set is sensory panel of experienced judges. Briefly: Descriptive analysis of sweetener attributes on a 15-cm line scale, low (0) to high (60). The conditions noted are these: solutions in spring water. It is filed as in vivo, human. The text has this:
The same samples described above were presented to a panel of 6-9 experienced judges for descriptive analysis. Solutions were blind-coded with random 3-digit codes and served at room temperature for evaluation. Panelists individually scored attributes of each sample, such as sweetness intensity, bitterness, astringency, and the presence of side flavors such as licorice or fruitiness. Scores were based on a 15-cm line scale marked with evenly spaced 5-point increments from low (0) to high (60). Samples were evaluated in duplicate. Water and […] crackers were provided for rinsing between samples. A solution of […] was made at 410 ppm in spring water (Ice Mountain, retail) to be about 6 SEV. A second solution was made at about 6 SEV of purified mogroside-V (Chem Faces, CFS202202) at 325 ppm. A panel of 7-8 trained judges evaluated the temporal properties and taste attributes of each sample, including blind duplicates, in the same manner described previously in the Mogroside Blend 80/15/5 Taste Quality sections. The panel also evaluated the intensity of several sensory attributes such as bitterness, astringency, caramel flavor, and fruitiness. The same 15-cm line scale was used for scoring, labeled from low (0) to high (60) with evenly spaced 5-point increments. The samples were served in 4-oz soufflé cups that were labeled with random 3-digit codes. Samples were evaluated at room temperature and included blind duplicates. Water and […] crackers were provided for rinsing between samples. A 400-ppm solution of V90 (Huacheng Bio, LHGE-230401) was tasted as a reference at the beginning of the descriptive analysis session for calibration verification among panelists.

Take `C[C@H](CC[C@@H](O[C@@H]1O[C@H](CO[C@@H]2O[C@H](CO)[C@@H](O)[C@H](O)[C@H]2O)[C@@H](O)[C@H](O)[C@H]1O[C@@H]1O[C@H](CO)[C@@H](O)[C@H](O)[C@H]1O)C(C)(C)O)[C@H]1CC[C@@]2(C)[C@@H]3CC=C4[C@@H](CC[C@H](O[C@@H]5O[C@H](CO[C@@H]6O[C@H](CO)[C@@H](O)[C@H](O)[C@H]6O)[C@@H](O)[C@H](O)[C@H]5O)C4(C)C)[C@]3(C)C(=O)C[C@]12C` [11-oxo-mogroside V]: the “taste quality in words” value is “slight bitterness”.
With `C=C1C[C@@]23CC[C@H]4[C@@](C)(CCC[C@@]4(C)C(=O)O[C@@H]4O[C@H](CO)[C@@H](O)[C@H](O)[C@H]4O)[C@@H]2CC[C@]1(O[C@@H]1O[C@H](CO)[C@@H](O)[C@H](O[C@@H]2O[C@H](CO)[C@@H](O)[C@H](O)[C@H]2O)[C@H]1O[C@@H]1O[C@H](CO)[C@@H](O)[C@H](O)[C@H]1O)C3` [Rebaudioside A, rebaudioside A], the “taste quality in words” value is listed as “a bitter taste continued to linger; also recorded: notable bitterness compared to the other sweeteners”.
As to `C[C@H](CC[C@@H](O[C@@H]1O[C@H](CO[C@@H]2O[C@H](CO)[C@@H](O)[C@H](O)[C@H]2O)[C@@H](O)[C@H](O)[C@H]1O[C@@H]1O[C@H](CO)[C@@H](O)[C@H](O)[C@H]1O)C(C)(C)O)[C@H]1CC[C@@]2(C)[C@@H]3CC=C4[C@@H](CC[C@H](O)C4(C)C)[C@]3(C)[C@H](O)C[C@]12C` [Mogroside IIIA-1, mogroside III-A1], the “taste quality in words” value was “strongly bitter with a strong lingering bitter aftertaste”. Moreover, the “taste quality in words” value (listed as mogroside IIIA-1) is listed as “strong bitter aftertaste that almost immediately overwhelmed any lingering sweet sensation”.
